Paper PMC8950151, “Synthesis and Evaluation of the Antifungal and Toxicological Activity of Nitrofuran Derivatives” (Pharmaceutics, 2022)

Columns and labels:
[1] = test system: A549 (ATCC CCL-185) lung epithelial cell line; assay: Cytotoxicity assay in monolayer by resazurin colorimetric method; format: cell-based, human; details: for Calculated SI H. capsulatum: ratio IC50 / MIC90
[2] = test system: MRC-5 (ATCC CCL-171) pulmonary fibroblast cell line; details: for Calculated SI H. capsulatum / Calculated SI T. mentagrophytes: ratio IC50 / MIC90

`O=C(/C=C/c1ccc([N+](=O)[O-])o1)c1ccc(Br)cc1` [Compound 11] was tested, and the “Calculated SI H. capsulatum” value [1] was 25.50, the “Calculated SI H. capsulatum” value [2] was 130.33 and the “Calculated SI T. mentagrophytes” value [2] was 8.02.
For `O=C(NCc1ccccn1)c1ccc([N+](=O)[O-])o1` [Compound 4], the “Calculated SI P. brasiliensis” value ([1]; A549 IC50 versus MIC90 of P. brasiliensis) was 7.56, the “Calculated SI H. capsulatum” value [1] was 7.56 and the “Calculated SI P. brasiliensis” value ([2]; MRC-5 IC50 versus MIC90 of P. brasiliensis) was 34.66. The “Calculated SI H. capsulatum” value [2] was 34.66 and the “Calculated SI T. mentagrophytes” value [2] was 4.32.
For `O=C(/C=C/c1ccc([N+](=O)[O-])o1)c1ccc(-n2ccnc2)cc1` [Compound 14], the “Calculated SI C. glabrata” value ([1]; A549 IC50 versus MIC90 of C. glabrata) was 4.28, the “Calculated SI H. capsulatum” value [1] was 4.28 and the “Calculated SI C. glabrata” value ([2]; MRC-5 IC50 versus MIC90 of C. glabrata) was 3.43. For the same compound, the “Calculated SI H. capsulatum” value [2] was 3.43 and the “Calculated SI T. mentagrophytes” value [2] was 13.74.
For `O=C(/C=C/c1ccc([N+](=O)[O-])o1)c1ccc(Cl)cc1` [Compound 10], the “Calculated SI H. capsulatum” value [1] was 4.95, the “Calculated SI H. capsulatum” value [2] was 27.58 and the “Calculated SI T. mentagrophytes” value [2] was 55.23.
In the case of `O=C(NCCc1c[nH]c2ccccc12)c1ccc([N+](=O)[O-])o1` [Compound 7], the “Calculated SI H. capsulatum” value [1] is reported as 8.75, the “Calculated SI H. capsulatum” value [2] is reported as 72.69 and the “Calculated SI T. mentagrophytes” value [2] is reported as 0.56.
With `COc1ccc(C(=O)/C=C/c2ccc([N+](=O)[O-])o2)cc1` [Compound 12] the “Calculated SI H. capsulatum” value [1] was 32.01, the “Calculated SI H. capsulatum” value [2] was 29.19 and the “Calculated SI T. mentagrophytes” value [2] was 116.92.
For `O=C(/C=C/c1ccc([N+](=O)[O-])o1)c1ccccc1` [Compound 8], the “Calculated SI H. capsulatum” value [1] was 3.44, the “Calculated SI H. capsulatum” value [2] was 0.42 and the “Calculated SI T. mentagrophytes” value [2] was 6.79.
With `O=C(/C=C/c1ccc([N+](=O)[O-])o1)c1ccc(F)cc1` [Compound 9] the “Calculated SI H. capsulatum” value [1] was 6.00, the “Calculated SI H. capsulatum” value [2] was 12.11 and the “Calculated SI T. mentagrophytes” value [2] was 24.22.
`O=C(NCCCn1ccnc1)c1ccc([N+](=O)[O-])o1` [Compound 2, N-(3-(1H-imidazol-1-yl)propyl)-5-nitrofuran-2-carboxamide] was tested, and the “Calculated SI H. capsulatum” value [1] was 0.19, the “Calculated SI H. capsulatum” value [2] was 0.36 and the “Calculated SI T. mentagrophytes” value [2] was 0.72.
`O=C(NCCCc1ccccc1)c1ccc([N+](=O)[O-])o1` [Compound 5] was tested, and the “Calculated SI H. capsulatum” value [1] was 15.44, the “Calculated SI H. capsulatum” value [2] was 20.38 and the “Calculated SI T. mentagrophytes” value [2] was 1.27.
In the case of `CS(=O)(=O)c1ccc(C(=O)/C=C/c2ccc([N+](=O)[O-])o2)cc1` [Compound 15, (E)-1-(4-(methylsulfonyl)phenyl)-3-(5-nitrofuran-2-yl)prop-2-en-1-one], the “Calculated SI H. capsulatum” value [1] is reported as 0.13, the “Calculated SI H. capsulatum” value [2] is reported as 0.04 and the “Calculated SI T. mentagrophytes” value [2] is reported as 1.47.
`O=C(/C=C/c1ccc([N+](=O)[O-])o1)c1ccc(Cl)cc1Cl` [Compound 16, (E)-1-(2,4-dichlorophenyl)-3-(5-nitrofuran-2-yl)prop-2-en-1-one] was tested, and the “Calculated SI H. capsulatum” value [1] was 0.56, the “Calculated SI H. capsulatum” value [2] was 0.47 and the “Calculated SI T. mentagrophytes” value [2] was 3.83.
With `CSc1ccc(C(=O)/C=C/c2ccc([N+](=O)[O-])o2)cc1` [Compound 13] the “Calculated SI H. capsulatum” value [1] was 0.14, the “Calculated SI H. capsulatum” value [2] was 0.03 and the “Calculated SI T. mentagrophytes” value [2] was 4.23.
For `O=C(NCCc1ccccn1)c1ccc([N+](=O)[O-])o1` [Compound 3, 5-nitro-N-(2-(pyridin-2-yl)ethyl)furan-2-carboxamide], the “Calculated SI H. capsulatum” value [1] was 59.28, the “Calculated SI H. capsulatum” value [2] was 64.10 and the “Calculated SI T. mentagrophytes” value [2] was 4.00.
In the case of `O=C(/C=C/c1ccccc1)OCc1ccc([N+](=O)[O-])o1` [Compound 1], the “Calculated SI H. capsulatum” value [1] is reported as 1.00, the “Calculated SI H. capsulatum” value [2] is reported as 0.96 and the “Calculated SI T. mentagrophytes” value [2] is reported as 15.41.
For `CN(C)CCCNC(=O)c1ccc([N+](=O)[O-])o1` [Compound 6], the “Calculated SI H. capsulatum” value [1] was 0.05, the “Calculated SI H. capsulatum” value [2] was 0.06 and the “Calculated SI T. mentagrophytes” value [2] was 0.06.
